Measurements reported in paper PMC11242351.
These are yes or no findings as the source states them, for the method shown. In cells and extracts the contact can be indirect. Here binding means that the protein was enriched with, or labelled near, the bait; the list need not be complete.

By UniProt entry, the sequences of proteins in these tests, tags left out.
UniProt O95236: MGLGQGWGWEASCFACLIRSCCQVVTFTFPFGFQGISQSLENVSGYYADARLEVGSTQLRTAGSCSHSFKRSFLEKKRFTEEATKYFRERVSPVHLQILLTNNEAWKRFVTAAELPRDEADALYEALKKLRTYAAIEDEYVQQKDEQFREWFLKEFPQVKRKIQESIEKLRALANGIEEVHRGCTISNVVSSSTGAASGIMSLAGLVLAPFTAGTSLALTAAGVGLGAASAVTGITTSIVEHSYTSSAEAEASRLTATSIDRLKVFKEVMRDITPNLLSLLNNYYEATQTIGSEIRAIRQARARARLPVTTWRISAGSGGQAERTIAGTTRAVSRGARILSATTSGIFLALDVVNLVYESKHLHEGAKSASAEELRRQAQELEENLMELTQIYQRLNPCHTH
UniProt P67809: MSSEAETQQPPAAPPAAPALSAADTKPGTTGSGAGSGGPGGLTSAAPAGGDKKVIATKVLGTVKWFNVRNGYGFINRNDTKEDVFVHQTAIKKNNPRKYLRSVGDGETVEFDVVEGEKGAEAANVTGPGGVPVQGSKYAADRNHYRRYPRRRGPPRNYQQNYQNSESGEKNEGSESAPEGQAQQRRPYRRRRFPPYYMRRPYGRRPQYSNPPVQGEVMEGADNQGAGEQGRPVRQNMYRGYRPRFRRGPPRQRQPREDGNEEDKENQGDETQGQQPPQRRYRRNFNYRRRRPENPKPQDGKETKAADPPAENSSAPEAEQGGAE

Target: Apolipoprotein L3 (APOL3), MYC-tagged, overexpressed from the PEGFP-APOL3-MYC vector (UniProt O95236)
Test: affinity purification with mass spectrometry; APOL3-IP against IgG control from MCF7 cells overexpressing APOL3; proteins identified by mass spectrometry

Question: How did the binding turn out when “Y-box binding protein 1 (YBX1) (from UniProt P67809 1-324)” was run?
Answer: binds
